Measured values published in the supplement of paper PMC10849652.
Some of the results follow.

Sequences of proteins named here, by UniProt entry; tags and fusion partners are left off. A change or cut given only in a name is not applied to a line headed by its entry.
UniProt Q9HCU9: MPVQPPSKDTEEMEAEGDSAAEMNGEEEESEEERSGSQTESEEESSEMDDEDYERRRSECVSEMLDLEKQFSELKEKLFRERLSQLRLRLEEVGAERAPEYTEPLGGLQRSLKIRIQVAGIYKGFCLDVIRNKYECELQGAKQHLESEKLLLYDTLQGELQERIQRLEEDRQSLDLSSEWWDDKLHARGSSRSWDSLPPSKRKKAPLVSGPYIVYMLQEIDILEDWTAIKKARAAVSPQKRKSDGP
UniProt O15169, whole entry, looked up: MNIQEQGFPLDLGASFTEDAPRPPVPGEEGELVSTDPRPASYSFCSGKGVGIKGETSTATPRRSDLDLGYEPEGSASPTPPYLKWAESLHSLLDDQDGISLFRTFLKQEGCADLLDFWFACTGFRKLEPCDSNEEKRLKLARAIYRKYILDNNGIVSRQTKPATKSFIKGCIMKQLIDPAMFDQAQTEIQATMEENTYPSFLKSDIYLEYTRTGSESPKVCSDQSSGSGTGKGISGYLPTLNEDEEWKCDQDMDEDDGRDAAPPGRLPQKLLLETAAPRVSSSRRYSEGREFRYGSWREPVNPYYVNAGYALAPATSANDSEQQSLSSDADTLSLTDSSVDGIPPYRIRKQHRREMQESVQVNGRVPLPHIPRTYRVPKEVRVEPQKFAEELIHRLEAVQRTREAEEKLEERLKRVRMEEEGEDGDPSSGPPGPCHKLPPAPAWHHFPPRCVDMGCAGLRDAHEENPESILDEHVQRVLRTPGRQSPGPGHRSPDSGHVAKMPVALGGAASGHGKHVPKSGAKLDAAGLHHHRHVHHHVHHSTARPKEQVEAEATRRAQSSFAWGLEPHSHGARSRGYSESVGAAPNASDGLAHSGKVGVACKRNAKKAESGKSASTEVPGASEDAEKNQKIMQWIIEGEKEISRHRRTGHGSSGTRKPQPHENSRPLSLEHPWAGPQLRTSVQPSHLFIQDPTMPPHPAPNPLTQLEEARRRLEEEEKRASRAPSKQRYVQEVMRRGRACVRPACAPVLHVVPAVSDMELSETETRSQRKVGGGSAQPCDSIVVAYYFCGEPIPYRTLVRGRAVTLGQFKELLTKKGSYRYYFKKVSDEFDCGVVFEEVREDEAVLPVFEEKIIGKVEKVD
UniProt P46100: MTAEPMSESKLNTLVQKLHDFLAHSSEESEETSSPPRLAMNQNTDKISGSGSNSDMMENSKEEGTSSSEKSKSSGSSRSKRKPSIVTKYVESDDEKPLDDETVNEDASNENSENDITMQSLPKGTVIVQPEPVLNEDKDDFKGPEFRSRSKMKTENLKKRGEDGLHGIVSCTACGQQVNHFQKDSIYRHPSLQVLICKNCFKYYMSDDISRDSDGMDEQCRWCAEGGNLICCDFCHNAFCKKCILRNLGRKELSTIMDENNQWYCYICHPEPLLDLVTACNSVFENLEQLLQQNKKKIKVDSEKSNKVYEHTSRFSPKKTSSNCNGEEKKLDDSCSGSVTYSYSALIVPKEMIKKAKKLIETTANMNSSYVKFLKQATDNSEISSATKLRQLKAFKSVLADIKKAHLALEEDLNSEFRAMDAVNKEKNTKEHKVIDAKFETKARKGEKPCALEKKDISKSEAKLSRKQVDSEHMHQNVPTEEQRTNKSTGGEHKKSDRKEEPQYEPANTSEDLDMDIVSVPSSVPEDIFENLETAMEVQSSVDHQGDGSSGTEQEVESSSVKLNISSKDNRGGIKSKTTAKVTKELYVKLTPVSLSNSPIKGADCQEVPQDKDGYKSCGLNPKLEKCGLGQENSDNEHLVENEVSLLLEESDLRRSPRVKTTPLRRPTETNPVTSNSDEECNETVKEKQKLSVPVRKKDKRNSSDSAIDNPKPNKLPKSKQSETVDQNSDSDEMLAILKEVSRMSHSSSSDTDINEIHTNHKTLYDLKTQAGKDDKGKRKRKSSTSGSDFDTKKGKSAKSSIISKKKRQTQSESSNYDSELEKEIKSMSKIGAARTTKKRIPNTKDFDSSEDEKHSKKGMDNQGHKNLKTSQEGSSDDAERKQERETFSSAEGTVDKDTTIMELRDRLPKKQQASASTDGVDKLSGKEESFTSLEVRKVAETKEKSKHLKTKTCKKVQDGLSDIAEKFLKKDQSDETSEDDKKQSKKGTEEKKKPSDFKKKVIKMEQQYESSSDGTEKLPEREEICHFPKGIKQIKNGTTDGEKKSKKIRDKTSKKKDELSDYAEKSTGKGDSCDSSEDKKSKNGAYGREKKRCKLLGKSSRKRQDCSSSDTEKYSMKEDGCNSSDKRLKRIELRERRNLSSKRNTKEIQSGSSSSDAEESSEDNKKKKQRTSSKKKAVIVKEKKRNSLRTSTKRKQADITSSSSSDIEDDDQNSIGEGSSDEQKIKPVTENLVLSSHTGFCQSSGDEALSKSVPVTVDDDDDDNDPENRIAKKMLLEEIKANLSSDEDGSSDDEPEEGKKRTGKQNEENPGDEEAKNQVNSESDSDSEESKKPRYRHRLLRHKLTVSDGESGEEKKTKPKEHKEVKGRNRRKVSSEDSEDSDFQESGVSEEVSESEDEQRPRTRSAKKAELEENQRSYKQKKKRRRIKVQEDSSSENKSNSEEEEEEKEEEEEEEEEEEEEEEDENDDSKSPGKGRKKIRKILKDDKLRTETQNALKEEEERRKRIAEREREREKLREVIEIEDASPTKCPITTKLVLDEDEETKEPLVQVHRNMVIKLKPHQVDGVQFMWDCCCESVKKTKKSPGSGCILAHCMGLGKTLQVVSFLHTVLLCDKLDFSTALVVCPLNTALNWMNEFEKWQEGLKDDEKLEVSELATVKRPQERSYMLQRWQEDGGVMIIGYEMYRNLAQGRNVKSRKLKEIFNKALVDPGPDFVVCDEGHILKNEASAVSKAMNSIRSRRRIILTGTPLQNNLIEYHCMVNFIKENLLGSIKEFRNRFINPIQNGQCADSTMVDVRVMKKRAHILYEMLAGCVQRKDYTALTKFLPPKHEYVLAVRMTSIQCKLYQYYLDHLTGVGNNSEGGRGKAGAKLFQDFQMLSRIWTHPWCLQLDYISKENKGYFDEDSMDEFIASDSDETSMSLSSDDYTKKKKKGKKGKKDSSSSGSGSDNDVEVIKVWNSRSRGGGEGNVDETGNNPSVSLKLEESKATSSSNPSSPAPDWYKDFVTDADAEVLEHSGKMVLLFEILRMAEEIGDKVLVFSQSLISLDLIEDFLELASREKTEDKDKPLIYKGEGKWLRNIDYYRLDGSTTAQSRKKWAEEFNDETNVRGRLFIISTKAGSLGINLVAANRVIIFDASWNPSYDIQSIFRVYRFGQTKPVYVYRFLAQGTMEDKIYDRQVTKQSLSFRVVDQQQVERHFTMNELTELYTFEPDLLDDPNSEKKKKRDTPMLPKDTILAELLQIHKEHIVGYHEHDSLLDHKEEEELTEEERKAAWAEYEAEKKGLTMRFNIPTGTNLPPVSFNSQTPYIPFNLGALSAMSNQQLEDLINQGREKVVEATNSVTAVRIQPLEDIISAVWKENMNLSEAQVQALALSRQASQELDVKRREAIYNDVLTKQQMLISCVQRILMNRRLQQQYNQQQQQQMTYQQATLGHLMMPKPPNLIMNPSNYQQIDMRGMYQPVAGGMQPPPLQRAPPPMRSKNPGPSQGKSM
UniProt Q8IXM2, whole entry, looked up: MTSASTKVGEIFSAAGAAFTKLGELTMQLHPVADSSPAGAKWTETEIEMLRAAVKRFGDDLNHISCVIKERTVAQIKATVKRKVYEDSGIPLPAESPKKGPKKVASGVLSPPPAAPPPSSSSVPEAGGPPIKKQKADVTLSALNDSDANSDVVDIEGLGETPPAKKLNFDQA
UniProt Q96IK1: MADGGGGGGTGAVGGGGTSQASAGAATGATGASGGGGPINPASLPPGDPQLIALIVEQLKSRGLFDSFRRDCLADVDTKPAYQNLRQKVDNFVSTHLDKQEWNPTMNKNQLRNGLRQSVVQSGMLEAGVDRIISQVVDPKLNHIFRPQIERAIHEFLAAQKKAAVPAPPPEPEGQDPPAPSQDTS
UniProt Q9UIG0: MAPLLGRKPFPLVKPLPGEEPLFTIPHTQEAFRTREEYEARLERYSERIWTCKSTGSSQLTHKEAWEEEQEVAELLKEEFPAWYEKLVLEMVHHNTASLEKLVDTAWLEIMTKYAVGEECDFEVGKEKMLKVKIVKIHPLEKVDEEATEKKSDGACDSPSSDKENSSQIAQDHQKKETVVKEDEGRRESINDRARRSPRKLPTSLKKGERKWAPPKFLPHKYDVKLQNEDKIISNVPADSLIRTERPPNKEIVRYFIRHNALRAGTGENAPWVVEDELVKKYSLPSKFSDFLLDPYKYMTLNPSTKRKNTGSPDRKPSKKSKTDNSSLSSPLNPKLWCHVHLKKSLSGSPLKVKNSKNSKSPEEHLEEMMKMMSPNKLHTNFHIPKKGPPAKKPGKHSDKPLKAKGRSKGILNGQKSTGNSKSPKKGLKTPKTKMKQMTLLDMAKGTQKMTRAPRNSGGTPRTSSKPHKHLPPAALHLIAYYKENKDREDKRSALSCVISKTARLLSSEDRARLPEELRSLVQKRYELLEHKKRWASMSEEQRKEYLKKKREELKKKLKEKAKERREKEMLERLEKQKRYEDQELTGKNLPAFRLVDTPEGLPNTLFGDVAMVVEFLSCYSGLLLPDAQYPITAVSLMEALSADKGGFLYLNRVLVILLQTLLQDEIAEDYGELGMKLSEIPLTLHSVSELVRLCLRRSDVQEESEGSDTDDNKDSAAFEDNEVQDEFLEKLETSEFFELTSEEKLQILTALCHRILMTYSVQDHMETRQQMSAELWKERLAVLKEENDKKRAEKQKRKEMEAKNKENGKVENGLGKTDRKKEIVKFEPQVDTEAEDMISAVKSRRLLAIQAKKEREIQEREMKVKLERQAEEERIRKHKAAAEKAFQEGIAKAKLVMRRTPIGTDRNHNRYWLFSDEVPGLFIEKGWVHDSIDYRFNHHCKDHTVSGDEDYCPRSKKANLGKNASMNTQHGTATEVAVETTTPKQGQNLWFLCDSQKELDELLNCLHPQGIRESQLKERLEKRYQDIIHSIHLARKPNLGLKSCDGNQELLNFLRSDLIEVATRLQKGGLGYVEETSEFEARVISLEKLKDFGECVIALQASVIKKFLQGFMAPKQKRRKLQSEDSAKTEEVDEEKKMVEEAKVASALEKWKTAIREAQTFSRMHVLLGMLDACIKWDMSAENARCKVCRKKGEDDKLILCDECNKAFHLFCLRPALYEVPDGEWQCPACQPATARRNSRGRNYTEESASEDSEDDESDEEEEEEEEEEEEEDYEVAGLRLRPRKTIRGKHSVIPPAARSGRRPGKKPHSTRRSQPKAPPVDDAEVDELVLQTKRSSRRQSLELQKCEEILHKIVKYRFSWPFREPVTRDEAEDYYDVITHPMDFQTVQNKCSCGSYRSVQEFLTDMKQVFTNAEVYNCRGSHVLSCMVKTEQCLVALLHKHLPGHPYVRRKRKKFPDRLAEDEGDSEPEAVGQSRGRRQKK
UniProt O43521, whole entry, looked up: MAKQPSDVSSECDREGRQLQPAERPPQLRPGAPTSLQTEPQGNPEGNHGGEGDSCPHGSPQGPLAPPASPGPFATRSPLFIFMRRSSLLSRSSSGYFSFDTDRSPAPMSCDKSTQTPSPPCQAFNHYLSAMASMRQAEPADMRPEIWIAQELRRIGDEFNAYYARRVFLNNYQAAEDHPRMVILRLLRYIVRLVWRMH
UniProt Q9NYM9: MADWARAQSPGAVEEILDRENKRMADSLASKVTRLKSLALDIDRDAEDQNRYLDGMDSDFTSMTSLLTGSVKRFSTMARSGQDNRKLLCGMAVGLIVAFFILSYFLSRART
UniProt O60238, whole entry, looked up: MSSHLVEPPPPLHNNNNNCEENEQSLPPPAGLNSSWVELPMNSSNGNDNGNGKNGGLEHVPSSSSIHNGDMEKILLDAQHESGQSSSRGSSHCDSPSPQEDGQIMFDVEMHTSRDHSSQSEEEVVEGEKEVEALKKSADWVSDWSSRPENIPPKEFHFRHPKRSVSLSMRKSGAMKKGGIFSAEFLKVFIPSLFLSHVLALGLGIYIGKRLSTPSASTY
UniProt Q8TDL5: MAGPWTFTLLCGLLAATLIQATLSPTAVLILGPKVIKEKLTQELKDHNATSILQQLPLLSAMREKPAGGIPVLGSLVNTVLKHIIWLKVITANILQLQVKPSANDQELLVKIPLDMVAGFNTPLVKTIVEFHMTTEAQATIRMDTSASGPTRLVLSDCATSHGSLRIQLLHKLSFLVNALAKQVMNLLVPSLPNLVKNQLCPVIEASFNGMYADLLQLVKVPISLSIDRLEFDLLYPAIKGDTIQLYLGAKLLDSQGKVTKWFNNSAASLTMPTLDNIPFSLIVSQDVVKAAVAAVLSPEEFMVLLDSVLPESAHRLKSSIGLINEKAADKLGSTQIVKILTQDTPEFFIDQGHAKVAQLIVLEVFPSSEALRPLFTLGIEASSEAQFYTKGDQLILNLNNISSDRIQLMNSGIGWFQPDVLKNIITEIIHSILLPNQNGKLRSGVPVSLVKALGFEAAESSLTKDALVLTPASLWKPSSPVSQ

compound: Cc1cccc(CC(=O)N2CCc3c2ccc(-c2cn(C)c4ncnc(N)c24)c3F)n1; assay: log2 fold change, soluble protein after heating vs DMSO (PISA); higher = thermal stabilisation; K562 cells, 10 uM, 30 min; active = over 0.2 and 3.5 SD of the protein, either way, in both replicates (recomputed)
Method in brief: (§1)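 K562 cells (2×10^6 cells/mL) were treated with 10 μM compound for 30 min, and aliquots were heated for 3 min over 48°C-58°C. Pooled aliquots were extracted in PBS with 0.5% NP-40 at 4°C, and the supernatant after 21,000xg for 90 min was measured by TMTpro 16plex LC-MS/MS with channel sums equalised. Reported thermal stability, relative to control samples and from duplicates, is a log2 fold change.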

log2 fold change, inactive:
BRMS1 (UniProt Q9HCU9) 0.029
BCL9 (UniProt O00512) -0.011
AXIN1 (UniProt O15169) 0.016
ATRX (UniProt P46100) -0.147
BAHD1 (UniProt Q8TBE0) -0.079
BAP18 isoform 3 (UniProt Q8IXM2) -0.182
BCAS3 isoform 8 (UniProt Q9H6U6) 0.027
BOD1 (UniProt Q96IK1) -0.099
BAZ1B (UniProt Q9UIG0) -0.112
BCL2L11 (UniProt O43521) -0.088
ATXN2 (UniProt F8W0B5) 0.029

compound: Cc1cn(-c2cc(NC(=O)c3ccc(C)c(Nc4nccc(-c5cccnc5)n4)c3)cc(C(F)(F)F)c2)cn1 [nilotinib]; assay: as above
Method in brief: as §1

log2 fold change, inactive:
AURKB isoform 5 (UniProt Q96GD4) -0.106
BPTF (UniProt Q12830) 0.057
BET1L (UniProt Q9NYM9) 0.019
BNIP3L (UniProt O60238) -0.052
BRAF, A0A2R8Y8E0 -0.419
BPIFB1 (UniProt Q8TDL5) 1.77
BAHD1 (UniProt Q8TBE0) 0.082
BAZ1B (UniProt Q9UIG0) -0.029
BCL2L11 (UniProt O43521) 0.044
ATXN2 (UniProt F8W0B5) 0.1
